In PubChem BioAssay AID2685 (National Center for Advancing Translational Sciences (NCATS), 2010):
Hit rate of the full screen: of about 320,000 compounds, about 2,100 (0.66%) were called active. This list was built around the results that the source calls inconclusive (neither active nor inactive); the mix of calls is not that of the screen. The call rests on the fitted dose curve; in most records, active means well fitted inhibition curve with a large enough effect in the signal ratio, with a control signal flat (not every such curve was filed as active); inconclusive means small, poorly fitted or top-dose-only effect, or effect the other way, or a change in a side signal; inactive means flat fitted curve, though single readings scatter; the % refers to the signal ratio. A potency beside an inconclusive call is a rough fit, not a confirmed value.

Assay: qHTS Assay for Lipid Storage Modulators in Drosophila S3 Cells
Conditions: BODIPY lipid droplet fluorescence, 18-24 h, cells fed with added oleic acid; lipid storage change, negative = inhibition: at 46.1 µM (top of the series) unless noted
Outline: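 Drosophila S3 cells loaded with oleic acid (400 uM, as added) and compounds at several concentrations; lipid droplets imaged by 488-nm laser-scanning cytometry, 500–530 nm intensity and object ratio to cell channel. Percent activity normalized to 20 uM Triacsin C.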
On the % scale 0 is the no-effect control and ±100 the full control effect; potency means the concentration at half of the fitted maximal effect.

Question: Which lipid storage change, negative = inhibition does the source give for `Cn1nnnc1Sc1ccc([N+](=O)[O-])cc1Cl` here?
Answer: inconclusive: -37%

Question: For `CC(=O)Nc1cccc(NC(=O)CSc2nnc(NC(=O)C3CC3)s2)c1`, which Potency is on record?
Answer: inconclusive: 0.0046 µM [falling, full curve, poor fit]

Question: With `Cc1ccccc1CC(=O)N1CCCC(CCC(=O)N2CCN(c3ccccn3)CC2)C1` (configuration not stated) as the compound, how does the Potency read?
Answer: inconclusive: 14.6 µM [falling, single point]

Question: Which lipid storage change, negative = inhibition does the source give for `NNC(=O)c1cncc(Br)c1` here?
Answer: inconclusive: 26.8%

Question: With `COc1cccc(COC(=O)C2CC(=O)N(Cc3ccc(C)cc3)C2)c1OC` (configuration not stated) as the compound, how does the lipid storage change, negative = inhibition read?
Answer: inconclusive

Question: For `COc1ccccc1NC(=O)CSC1=NC(=O)C(Cc2ccccc2)C(=O)N1` (configuration not stated), which Potency is on record?
Answer: inconclusive: 6.51 µM [activator, single point]

Question: Which lipid storage change, negative = inhibition does the source give for `COCCN1Cc2cccc(C(=O)Nc3ccc4c(c3)OCCO4)c2C1=O` here?
Answer: inconclusive: -63.8%

Question: With `CCOc1ccccc1C(=O)N/N=C/c1coc2ccc(C)cc2c1=O` as the compound, how does the Potency read?
Answer: active: 10.3 µM

Question: For `Cc1ccc2occ(/C=N/NC(=O)c3ccncc3)c(=O)c2c1`, which lipid storage change, negative = inhibition is on record?
Answer: inconclusive: 57.1%

Question: Which lipid storage change, negative = inhibition does the source give for `Cc1ccc(C2C(C(=O)c3cccs3)=C(O)C(=O)N2c2cccc(C)n2)cc1` (configuration not stated) here?
Answer: inconclusive: 12.6%

Question: For `Cc1cc(N2CCOCC2)ccc1/C=C1\NC(=O)N(CC(=O)Nc2ccc(F)cc2)C1=O`, which lipid storage change, negative = inhibition is on record?
Answer: inconclusive: -29.1%

Question: Which lipid storage change, negative = inhibition does the source give for `COc1ccc(C(=O)Cc2cc3cccc(OC)c3oc2=O)cc1` here?
Answer: inconclusive: 13.5%

Question: For `Cc1ccc(SCC(=O)OCC(=O)NCc2cccs2)cc1`, which Potency is on record?
Answer: inconclusive: 0.231 µM [activator, single point]

Question: Which lipid storage change, negative = inhibition does the source give for `O=C(Nc1ccc(Cl)c(S(=O)(=O)N2CCOCC2)c1)c1cn2ccccc2n1` here?
Answer: inconclusive: -16.9%

Question: With `CCCOC(=O)c1ccc(Oc2c(-c3ccc(OCC)cc3O)n[nH]c2C)cc1` as the compound, how does the Potency read?
Answer: inconclusive: 23.1 µM [cytotoxic, single point]

Question: With `Cc1cccc(NC(=O)c2cccc(C(F)(F)F)c2)c1` as the compound, how does the lipid storage change, negative = inhibition read?
Answer: inconclusive: 9.29%

Question: With `Cc1cccc(-c2nnc(SCC(=O)Nc3nc4c(s3)CCCC4)n2C)c1` as the compound, how does the lipid storage change, negative = inhibition read?
Answer: inconclusive: -22%

Question: Which lipid storage change, negative = inhibition does the source give for `O=C(Nc1ccc(F)c(F)c1)C1CCCN(S(=O)(=O)c2cnc[nH]2)C1` (configuration not stated) here?
Answer: inconclusive: -28.7%

Question: For `COCCn1c(SCC(=O)Nc2ncc(Cl)c(C)c2Cl)nc2ccccc21`, which Potency is on record?
Answer: inconclusive: 6.51 µM [rising, single point]

Question: Which lipid storage change, negative = inhibition does the source give for `Cc1cccc(OCc2nnc(SCC(=O)N3CCc4ccccc43)n2C)c1` here?
Answer: inconclusive: 30.8%

Question: Which Potency does the source give for `O=C(Nc1ccc(Cl)cc1C(=O)O)c1ccc2c(c1)C(=O)N(Cc1ccco1)C2=O` here?
Answer: inconclusive: 0.058 µM [falling, full curve, poor fit]

Question: Which Potency does the source give for `O=C(CNC(=O)c1ccccc1F)N/N=C/c1ccco1` here?
Answer: inconclusive: 18.4 µM [activator, single point]

Question: With `COc1ccc2c(c1)c(CC(=O)Nc1cc(C)ccc1C)c(C)n2C(=O)c1ccc(Cl)cc1` as the compound, how does the lipid storage change, negative = inhibition read?
Answer: inconclusive: 27.3%

Question: With `O=C(NCc1ccc(Cl)cc1)N1CCN(Cc2ccccc2)CC1` as the compound, how does the lipid storage change, negative = inhibition read?
Answer: inconclusive: -47.5%

Question: With `CCCN(CC1CC1)C(=O)CSc1ncnc2sccc12` as the compound, how does the lipid storage change, negative = inhibition read?
Answer: inconclusive: 20.9%

Question: With `CN1C(=O)c2ccccc2N(C)C1c1cccs1` (configuration not stated) as the compound, how does the lipid storage change, negative = inhibition read?
Answer: inconclusive: 65.2%

Question: Which lipid storage change, negative = inhibition does the source give for `Cc1cc(NC(=O)c2cccs2)n(-c2nc3ccccc3[nH]2)n1` here?
Answer: inconclusive: -72.6%

Question: With `O=C(Nc1cccc(-n2cccn2)c1)C1CCCN(Cc2ccc(C#CCCO)cc2)C1` (configuration not stated) as the compound, how does the lipid storage change, negative = inhibition read?
Answer: inconclusive: -21.7%

Question: With `COc1cc(NS(=O)(=O)c2ccc(Nc3nc(-c4ccccn4)cs3)cc2)nc(OC)n1` as the compound, how does the lipid storage change, negative = inhibition read?
Answer: inconclusive: 22.3%

Question: For `CN(C)C1=NCCN1CC1CCCCC1`, which lipid storage change, negative = inhibition is on record?
Answer: inconclusive: -45.1%

Question: Which lipid storage change, negative = inhibition does the source give for `Cc1c(OC(C)C(=O)N2C[C@H]3C[C@@H](C2)c2cccc(=O)n2C3)ccc2c3c(c(=O)oc12)CCC3` (some centres not stated) here?
Answer: inconclusive: -37.8%

Question: For `COc1ccc(C(=O)Nc2ccc3[nH]ncc3c2)cc1`, which Potency is on record?
Answer: inconclusive: 29.1 µM [falling, single point]

Question: For `COc1ccccc1N1CCN(C(=O)CN2C(=O)C3CCCCC3C2=O)CC1` (configuration not stated), which lipid storage change, negative = inhibition is on record?
Answer: inconclusive: 24.5%

Question: Which lipid storage change, negative = inhibition does the source give for `CC1=C(/C=C/C(C)=C/C=C/C(C)=C/C(=O)Nc2ccc(O)cc2)C(C)(C)CCC1` here?
Answer: inconclusive: 24.8%

Question: For `CC(=O)Nc1ccc(OCC(=O)N2CCc3ccccc3C2)cc1`, which Potency is on record?
Answer: inconclusive: 4.11 µM [falling, single point]

Question: For `COc1ccc(S(=O)(=O)N2CCCCC2)cc1NC(=O)CCOc1cc(C)ccc1C`, which Potency is on record?
Answer: inconclusive: 0.0052 µM [activator, full curve, poor fit]

Question: With `CCOC(=O)CN1Cc2cccc(C(=O)O)c2C1=O` as the compound, how does the Potency read?
Answer: inconclusive: 0.731 µM [falling, full curve, poor fit]

Question: With `CCOC(=O)N1CCN(S(=O)(=O)N2CCCC(C(=O)NCc3ccc(OC)cc3)C2)CC1` (configuration not stated) as the compound, how does the lipid storage change, negative = inhibition read?
Answer: inconclusive: 6.87%

Question: For `COc1ccc(CCNc2nc3ccc(C)cc3n3cnnc23)cc1OC`, which lipid storage change, negative = inhibition is on record?
Answer: inconclusive: 9.14%

Question: Which Potency does the source give for `CC1(C)CC(=O)C(C=NCC2CCNCC2)=C(O)C1` here?
Answer: inconclusive: 3.66 µM [falling, full curve]

Question: Which Potency does the source give for `COc1ccc(N(CC(=O)NC2CCCCCC2)S(=O)(=O)c2ccc(C)cc2)cc1OC` here?
Answer: inconclusive: 0.146 µM [activator, full curve]

Question: Which lipid storage change, negative = inhibition does the source give for `O=C(CCNC(=O)c1ccc([N+](=O)[O-])cc1)NNC(=O)c1ccccc1F` here?
Answer: inconclusive: 20.8%

Question: Which Potency does the source give for `O=C(Nc1ccc(C(=O)O)cc1)Nc1ccc([N+](=O)[O-])cc1` here?
Answer: inconclusive: 23.1 µM [activator, partial curve]

Question: With `COc1c(F)c(F)c(C(=O)Nc2ccccc2N2CCN(C(=O)C(C)C)CC2)c(F)c1F` as the compound, how does the lipid storage change, negative = inhibition read?
Answer: inconclusive: 18.5%

Question: For `CN(Cc1nccs1)C(=O)C1CCC(=O)N(Cc2ccccc2F)C1` (configuration not stated), which Potency is on record?
Answer: inconclusive: 20.6 µM [activator, single point]

Question: For `COc1cc(C(=O)Nc2ccc(C)cn2)ccc1OCC(=O)N1CCOCC1`, which Potency is on record?
Answer: active: 20.6 µM

Question: For `COc1ccccc1NC(=O)CCSCCC(=O)Nc1ccccc1OC`, which lipid storage change, negative = inhibition is on record?
Answer: inconclusive: -2.38%

Question: With `Cc1ccc(O)c(NC(=S)NC(=O)CC(C)C)c1` as the compound, how does the Potency read?
Answer: inconclusive: 29.1 µM [rising, single point]

Question: For `CCOC(=O)C1(CCOc2ccccc2)CCN(Cc2ccc(C)o2)CC1`, which lipid storage change, negative = inhibition is on record?
Answer: inconclusive: -40.4%

Question: For `O=C(CNC(=O)c1ccccc1F)NNC(=O)c1ccccc1O`, which lipid storage change, negative = inhibition is on record?
Answer: inconclusive: 8.09%

Question: With `CC(=O)N/C(=C\c1ccc(F)cc1)C(=O)N(C)C` as the compound, how does the Potency read?
Answer: inconclusive: 3.66 µM [falling, single point]

Question: For `COc1ccc(/C=C(/C#N)C(=O)Nc2cc(C)ccc2C)cc1C(=O)O`, which lipid storage change, negative = inhibition is on record?
Answer: inconclusive: -62.7%

Question: With `C/C(CCN1CCc2nc(-c3ccccc3)c(-c3ccccc3)cc2C1)=N\O[C@H](C)c1cn([C@H](CO)Cc2ccccc2)nn1` as the compound, how does the lipid storage change, negative = inhibition read?
Answer: inconclusive: 24%

Question: With `C/C(=N\NC(=O)CSc1ncccn1)c1ccc2c(c1)OCCO2` as the compound, how does the Potency read?
Answer: inconclusive: 29.1 µM [activator, single point]

Question: Which lipid storage change, negative = inhibition does the source give for `CCN(CC)S(=O)(=O)c1cccc(C(=O)N2CCCc3ccccc32)c1` here?
Answer: inconclusive: -0.663%

Question: With `CC(=O)Nc1ccc(-c2nnc(SCC(=O)NCc3ccco3)n2C)cc1` as the compound, how does the lipid storage change, negative = inhibition read?
Answer: inconclusive: -13.6%

Question: For `COCCN(C(=O)Nc1ccccc1)C(C)c1cccnc1` (configuration not stated), which lipid storage change, negative = inhibition is on record?
Answer: inconclusive: -3.48%

Question: Which lipid storage change, negative = inhibition does the source give for `CN(C)CCCN1C(=O)C(=O)/C(=C(/O)c2ccncc2)C1c1ccccc1` (configuration not stated) here?
Answer: inconclusive: 0.946%

Question: For `Cc1ccnc(NS(=O)(=O)c2cccc3nsnc23)c1`, which lipid storage change, negative = inhibition is on record?
Answer: inconclusive: 30.3%

Question: With `Cc1cccc(N(C)S(=O)(=O)c2ccc3c(c2)NC(=O)CC(=O)N3)c1` as the compound, how does the lipid storage change, negative = inhibition read?
Answer: inconclusive: 3.17%

Question: For `Cc1cccc2[nH]c3c(N4CC=C(c5ccc(F)cc5)CC4)ncnc3c12`, which lipid storage change, negative = inhibition is on record?
Answer: inconclusive: -26.2%

Question: Which lipid storage change, negative = inhibition does the source give for `O=C(O)C1CCC(=O)N1C(=O)OCc1ccccc1` (configuration not stated) here?
Answer: inconclusive: 0.943%

Question: For `Cc1cc(N2CCOCC2)ccc1/C=C1\SC(=O)N(C(C)C)C1=O`, which lipid storage change, negative = inhibition is on record?
Answer: inconclusive: 13.7%

Question: With `O=C1N=C(N2CCCC2)S/C1=C\c1cn[nH]c1-c1ccccc1` as the compound, how does the Potency read?
Answer: inconclusive: 25.9 µM [activator, partial curve]

Question: Which lipid storage change, negative = inhibition does the source give for `Cc1ccc(NC(=O)CCC(=O)N/N=C/c2ccc([N+](=O)[O-])o2)cc1C` here?
Answer: inconclusive: -19.5%

Question: Which lipid storage change, negative = inhibition does the source give for `CCn1c(SCc2ccccc2F)nnc1-c1ccncc1` here?
Answer: inconclusive: 14.9%

Question: For `O=C(Nc1nnc(SCc2ccccc2)s1)c1cccc([N+](=O)[O-])c1`, which lipid storage change, negative = inhibition is on record?
Answer: inconclusive: 11%

Question: Which Potency does the source give for `CCCn1c(C(C)Nc2nc(-c3ccc(OC)cc3)cs2)nc2ccccc21` (configuration not stated) here?
Answer: inconclusive: 29.1 µM [activator, partial curve]

Question: With `COC(=O)COc1ccc(NS(=O)(=O)c2cccc([N+](=O)[O-])c2)cc1` as the compound, how does the lipid storage change, negative = inhibition read?
Answer: inconclusive: 6.17%

Question: Which lipid storage change, negative = inhibition does the source give for `CC(C)COc1ccc(C(=O)N(CC(=O)Nc2ccccc2C(F)(F)F)Cc2ccco2)cc1` here?
Answer: inconclusive: 23.6%

Question: With `O=C(NCCc1ccc(Cl)cc1)c1ncn[nH]1` as the compound, how does the lipid storage change, negative = inhibition read?
Answer: inconclusive: -91.9%

Question: For `Cc1ccc(Cn2ncn3c(cc4ccccc43)c2=O)cc1`, which Potency is on record?
Answer: inconclusive: 32.6 µM [falling, single point]

Question: For `CC1CC(C)CN(C(=O)c2cccc3c2-c2ccccc2C3=O)C1` (configuration not stated), which lipid storage change, negative = inhibition is on record?
Answer: inconclusive: 22.4%

Question: Which lipid storage change, negative = inhibition does the source give for `COc1ccc(OC)c(CN2CCN(c3ccc(S(=O)(=O)N4CCCC4)cn3)CC2)c1` here?
Answer: inconclusive: -18.5%

Question: Which lipid storage change, negative = inhibition does the source give for `C=CCn1c(N2CCCCCC2)nc2c1c(=O)[nH]c(=O)n2C` here?
Answer: inconclusive: 47.6%

Question: For `O=C(Nc1ccc(Cl)cc1C(=O)NCC1CCCO1)c1ccco1` (configuration not stated), which lipid storage change, negative = inhibition is on record?
Answer: inconclusive: 86%

Question: Which Potency does the source give for `Cc1cccc(OCc2nnc(-c3ccc(F)cc3)o2)c1` here?
Answer: inconclusive: 2.06 µM [activator, full curve, poor fit]
